This is one part of the list.
Assays:
Test in all cases: glycan array binding signal (z-score within array); higher = stronger binding
Settings in all cases: glycan notation: IUPAC condensed, linker removed
Fuc(a1-2)Gal = biological target: Fuc(a1-2)Gal
In short: (§1)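 Glycan array data came from 3228 arrays in the Consortium for Functional Glycomics database, and only arrays with an available protein sequence were kept. Glycan names were put into IUPAC-condensed notation, and columns mapping to the same glycan were averaged. The binding signal is a within-array Z-score, averaged across arrays of one protein sequence run at different concentrations or buffers and across linkers. A negative Z-score can be read as non-binding.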

Fuc(a1-2)Gal(b1-3)GalNAc = biological target: Fuc(a1-2)Gal(b1-3)GalNAc
In short: as §1

[1] = biological target: Fuc(a1-2)Gal(b1-3)GalNAc(a1-3)[Fuc(a1-2)]Gal(b1-4)Glc
In short: as §1

[2] = biological target: Fuc(a1-2)Gal(b1-3)GalNAc(a1-3)[Fuc(a1-2)]Gal(b1-4)GlcNAc
In short: as §1

[3] = biological target: Fuc(a1-2)Gal(b1-3)GalNAc(b1-3)Gal
In short: as §1

[4] = biological target: Fuc(a1-2)Gal(b1-3)GalNAc(b1-3)Gal(a1-4)Gal(b1-4)Glc
In short: as §1

[5] = biological target: Fuc(a1-2)Gal(b1-3)GalNAc(b1-4)[Neu5Ac(a2-3)]Gal(b1-4)Glc
In short: as §1

Fuc(a1-2)Gal(b1-3)GlcNAc = biological target: Fuc(a1-2)Gal(b1-3)GlcNAc
In short: as §1

[6] = biological target: Fuc(a1-2)Gal(b1-3)GlcNAc(b1-2)Man(a1-3)[Fuc(a1-2)Gal(b1-3)GlcNAc(b1-2)Man(a1-6)]Man(b1-4)GlcNAc(b1-4)GlcNAc
In short: as §1

[7] = biological target: Fuc(a1-2)Gal(b1-3)GlcNAc(b1-2)Man(a1-3)[Fuc(a1-2)Gal(b1-3)GlcNAc(b1-2)Man(a1-6)]Man(b1-4)GlcNAc(b1-4)[Fuc(a1-6)]GlcNAc
In short: as §1

[8] = biological target: Fuc(a1-2)Gal(b1-3)GlcNAc(b1-3)Gal(b1-4)Glc
In short: as §1

[9] = biological target: Fuc(a1-2)Gal(b1-3)GlcNAc(b1-3)GalNAc
In short: as §1

[10] = biological target: Fuc(a1-2)Gal(b1-3)GlcNAc(b1-3)[Fuc(a1-2)Gal(b1-3)GlcNAc(b1-6)]GalNAc
In short: as §1

[11] = biological target: Fuc(a1-2)Gal(b1-3)GlcNAc(b1-3)[Gal(b1-4)GlcNAc(b1-6)]Gal(b1-4)Glc
In short: as §1

[12] = biological target: Fuc(a1-2)Gal(b1-3)GlcNAc(b1-3)[Neu5Ac(a2-6)Gal(b1-4)GlcNAc(b1-6)]Gal(b1-4)Glc
In short: as §1

[13] = biological target: Fuc(a1-2)Gal(b1-3)GlcNAc6S
In short: as §1

[14] = biological target: Fuc(a1-2)Gal(b1-3)[Fuc(a1-4)]GlcNAc
In short: as §1

[15] = biological target: Fuc(a1-2)Gal(b1-3)[Fuc(a1-4)]GlcNAc(b1-2)Man(a1-3)[Fuc(a1-2)Gal(b1-3)[Fuc(a1-4)]GlcNAc(b1-2)Man(a1-3)]Man(b1-4)GlcNAc(b1-4)GlcNAc
In short: as §1

[16] = biological target: Fuc(a1-2)Gal(b1-3)[Fuc(a1-4)]GlcNAc(b1-2)Man(a1-3)[Fuc(a1-2)Gal(b1-3)[Fuc(a1-4)]GlcNAc(b1-2)Man(a1-6)]Man(b1-4)GlcNAc(b1-4)[Fuc(a1-6)]GlcNAc(b1-4)[Fuc(a1-6)]GlcNAc
In short: as §1

[17] = biological target: Fuc(a1-2)Gal(b1-3)[Fuc(a1-4)]GlcNAc(b1-3)[Fuc(a1-3)[Gal(b1-4)]GlcNAc(b1-6)]Gal(b1-4)Glc
In short: as §1

[18] = biological target: Fuc(a1-2)Gal(b1-3)[Fuc(a1-4)]GlcNAc(b1-3)[Gal(b1-4)GlcNAc(b1-6)]Gal(b1-4)Glc
In short: as §1

[19] = biological target: Fuc(a1-2)Gal(b1-4)Fuc(a1-3)]GlcNAc(b1-2)Man(a1-3)[Fuc(a1-2)Gal(b1-4)[Fuc(a1-3)]GlcNAc(b1-2)Man(a1-6)]Man(b1-4)GlcNAc(b1-4)GlcNAc
In short: as §1

Fuc(a1-2)Gal(b1-4)Glc = biological target: Fuc(a1-2)Gal(b1-4)Glc
In short: as §1

Fuc(a1-2)Gal(b1-4)Glc6S = biological target: Fuc(a1-2)Gal(b1-4)Glc6S
In short: as §1

Fuc(a1-2)Gal(b1-4)GlcNAc = biological target: Fuc(a1-2)Gal(b1-4)GlcNAc
In short: as §1

[20] = biological target: Fuc(a1-2)Gal(b1-4)GlcNAc(b1-2)Man
In short: as §1

[21] = biological target: Fuc(a1-2)Gal(b1-4)GlcNAc(b1-2)Man(a1-3)[Fuc(a1-2)Gal(b1-4)GlcNAc(b1-2)Man(a1-6)]Man(b1-4)GlcNAc(b1-4)GlcNAc
In short: as §1

[22] = biological target: Fuc(a1-2)Gal(b1-4)GlcNAc(b1-2)Man(a1-3)[Fuc(a1-2)Gal(b1-4)GlcNAc(b1-2)Man(a1-6)]Man(b1-4)GlcNAc(b1-4)[Fuc(a1-6)]GlcNAc
In short: as §1

[23] = biological target: Fuc(a1-2)Gal(b1-4)GlcNAc(b1-2)[Fuc(a1-2)Gal(b1-4)GlcNAc(b1-4)]Man(a1-3)[Fuc(a1-2)Gal(b1-4)GlcNAc(b1-2)Man(a1-6)]Man(b1-4)GlcNAc(b1-4)GlcNAc
In short: as §1

[24] = biological target: Fuc(a1-2)Gal(b1-4)GlcNAc(b1-3)Gal(b1-4)GlcNAc
In short: as §1

B1: XTP3-B-MRH1 (Homo sapiens), Q96DZ1 (protein)
chain: LLEPLFKQSSCSYRIESYWTYEVCHGKHIRQYHEEKETGQKINIHEYYLGNMLAKNLLFEKEREAEEKEKSNEIPTKNIEGQMTPYYPVGMGNGTPCSLKQNRPRSSTVMYICHPESKHEILSVAEVTTCEYEVVILTPLLCSHPKYRFRA
glycan array binding signal (z-score) (Fuc(a1-2)Gal): 0.999
glycan array binding signal (z-score) (Fuc(a1-2)Gal(b1-3)GalNAc): 0.653
glycan array binding signal (z-score) [1]: -0.222
glycan array binding signal (z-score) [2]: -0.51
glycan array binding signal (z-score) [3]: 0.147
glycan array binding signal (z-score) [4]: -0.962
glycan array binding signal (z-score) [5]: 0.229
glycan array binding signal (z-score) (Fuc(a1-2)Gal(b1-3)GlcNAc): -0.8
glycan array binding signal (z-score) [6]: 1.96
glycan array binding signal (z-score) [7]: -1.59
glycan array binding signal (z-score) [8]: -0.255
glycan array binding signal (z-score) [9]: -0.536
glycan array binding signal (z-score) [10]: -1.56
glycan array binding signal (z-score) [11]: 0.199
glycan array binding signal (z-score) [12]: -1.03
glycan array binding signal (z-score) [13]: 0.065
glycan array binding signal (z-score) [14]: -0.488
glycan array binding signal (z-score) [15]: -0.463
glycan array binding signal (z-score) [16]: 0.479
glycan array binding signal (z-score) [17]: -0.461
glycan array binding signal (z-score) [18]: 0.735
glycan array binding signal (z-score) [19]: 3.43
glycan array binding signal (z-score) (Fuc(a1-2)Gal(b1-4)Glc): -1.56
glycan array binding signal (z-score) (Fuc(a1-2)Gal(b1-4)Glc6S): 0.43
glycan array binding signal (z-score) (Fuc(a1-2)Gal(b1-4)GlcNAc): 0.13
glycan array binding signal (z-score) [20]: -0.171
glycan array binding signal (z-score) [21]: 1.23
glycan array binding signal (z-score) [22]: 0.235
glycan array binding signal (z-score) [23]: -0.21
glycan array binding signal (z-score) [24]: -0.514

— the supplement of paper PMC8728848
